PubChem BioAssay AID1224826 | NIAID, 2016
Purpose: 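Genes that change LPS-induced Tnf promoter activity in mouse macrophages when knocked down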 (primary screen). Cells: RAW264.7 G9 macrophages from mouse bearing reporters for p65 (GFP) and the Tnf promoter (mCherry). Reagents: siRNA pool against mouse genes, 100 nM. Duration: 16 h of LPS stimulation, after 2 days of siRNA transfection. Challenge: bacterial lipopolysaccharide (Salmonella minnesota R595), 10 ng/ml. Read-out: 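Imaged Tnf reporter mCherry in nuclei, minus background, normalised per plate to the median and expressed as robust z-scores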. Scale: Tnf reporter robust z-score: higher = stronger Tnf promoter reporter signal after LPS; Tnf reporter intensity: higher = stronger Tnf promoter reporter signal. Rule for the call: 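a well counts as active at a score of -1.3 or below (Tlr4 knock-down control median) or above 3 (raised signal); controls and wells holding fewer than 50 cells are excluded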. Calls: active = Tnf reporter clearly lowered or raised; inactive = no clear change in Tnf reporter.
The deposit covers about 17,000 reagents; this is a random part of them. Of all reagents, about 1,110 (6.6%) got an active call. 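Active means lowered or raised reporter signal; replicate intensities are raw and not normalised per plate.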 Some reagents were tested in more than one well and are listed for each.

Gene,Tnf reporter robust z-score,fewer than 50 cells in well,"Tnf reporter intensity, replicate 1","Tnf reporter intensity, replicate 2",activity call
Ces1f (GeneID 234564),0.37,enough cells in well,185,192,inactive
Nox1 (GeneID 237038),4.05,enough cells in well,349,433,active
Slfn10 (GeneID 237887),,fewer than 50 cells per well; well left out of calls,35.3,29.3,inactive
Zdhhc14 (GeneID 224454),-1.01,enough cells in well,80.9,83.5,inactive
Fam241a (GeneID 70617),0.47,enough cells in well,223,153,inactive
Map4k3 (GeneID 225028),-0.81,enough cells in well,142,163,inactive
Ralyl (GeneID 76897),1.72,enough cells in well,397,126,inactive
Echdc2 (GeneID 52430),,fewer than 50 cells per well; well left out of calls,43.6,101,inactive
Hpse (GeneID 15442),-0.12,enough cells in well,245,152,inactive
Wwp2 (GeneID 66894),-0.01,enough cells in well,166,148,inactive
Grk2 (GeneID 110355),,fewer than 50 cells per well; well left out of calls,171,142,inactive
Grk2 (GeneID 110355),0.23,enough cells in well,205,364,inactive
Erc1 (GeneID 111173),0,enough cells in well,122,138,inactive
Pofut2 (GeneID 80294),0.84,enough cells in well,157,176,inactive
Nrp2 (GeneID 18187),-0.78,enough cells in well,154,153,inactive
Uggt2 (GeneID 66435),1.23,enough cells in well,229,231,inactive
Rbfox2 (GeneID 93686),4.53,enough cells in well,360,286,active
Rassf5 (GeneID 54354),0.09,enough cells in well,321,210,inactive
Zfp536 (GeneID 243937),-1.16,enough cells in well,59.2,75.4,inactive
Bmp8b (GeneID 12164),1.49,enough cells in well,8.46,249,inactive
Timd2 (GeneID 171284),0.09,enough cells in well,123,94.5,inactive
Spam1 (GeneID 20690),-0.11,enough cells in well,106,86.4,inactive
Asxl2 (GeneID 75302),,fewer than 50 cells per well; well left out of calls,145,27.4,inactive
Npnt (GeneID 114249),1.4,enough cells in well,230,259,inactive
Pyurf (GeneID 66459),-1.1,enough cells in well,160,60.8,inactive
B930095G15Rik (GeneID 320268),0.32,enough cells in well,224,235,inactive
Sprr3 (GeneID 20766),1.26,enough cells in well,176,111,inactive
Tas2r121 (GeneID 387349),0.41,enough cells in well,352,88.3,inactive
Pspc1 (GeneID 66645),-0.08,enough cells in well,153,98.9,inactive
Slc25a28 (GeneID 246696),-0.55,enough cells in well,109,54.1,inactive
Paqr7 (GeneID 71904),-0.9,enough cells in well,180,145,inactive
2410137M14Rik (GeneID 76797),1.29,enough cells in well,313,103,inactive
Ift74 (GeneID 67694),0.26,enough cells in well,137,250,inactive
Eps8l2 (GeneID 98845),1.54,enough cells in well,286,267,inactive
Eya1 (GeneID 14048),0.01,enough cells in well,229,232,inactive
Fgf2 (GeneID 14173),-1.17,enough cells in well,167,133,inactive
Cend1 (GeneID 57754),-0.14,enough cells in well,260,70.3,inactive
Rassf7 (GeneID 66985),1.57,enough cells in well,243,240,inactive
Bbln (GeneID 73737),0.48,enough cells in well,325,61.3,inactive
Rsrp1 (GeneID 27981),-1.36,enough cells in well,120,78.3,active
Ing3 (GeneID 71777),1.48,enough cells in well,314,258,inactive
Mon1b (GeneID 270096),0.72,enough cells in well,214,188,inactive
Fbxo45 (GeneID 268882),0.54,enough cells in well,269,216,inactive
Foxn3 (GeneID 71375),0.17,enough cells in well,154,170,inactive
Atp7a (GeneID 11977),0,enough cells in well,102,222,inactive
Smgc (GeneID 223809),,fewer than 50 cells per well; well left out of calls,82.8,18.8,inactive
Apbb3 (GeneID 225372),0.2,enough cells in well,186,174,inactive
Sigirr (GeneID 24058),0.09,enough cells in well,229,176,inactive
Or4c123 (GeneID 258785),0.5,enough cells in well,205,187,inactive
Catsperd (GeneID 106757),,fewer than 50 cells per well; well left out of calls,192,86.1,inactive
Or6z6 (GeneID 258383),0.65,enough cells in well,200,161,inactive
Tomm40 (GeneID 53333),,fewer than 50 cells per well; well left out of calls,204,0,inactive
Tmx3 (GeneID 67988),2.03,enough cells in well,278,270,inactive
Actr3 (GeneID 74117),0.31,enough cells in well,143,236,inactive
Dpp4 (GeneID 13482),0.86,enough cells in well,274,290,inactive
Igf2r (GeneID 16004),-0.03,enough cells in well,245,178,inactive
Irak1 (GeneID 16179),1.59,enough cells in well,305,244,inactive
Akap12 (GeneID 83397),1.14,enough cells in well,216,253,inactive
